Results: patent US20240053326A1, “TESTING COLON CANCER DRUGS FOR IMMUNOMODULATORY EFFECTS” (BROWN UNIVERSITY, priority 2022, published 2024)
For at least one compound, name, drawing or mass did not settle the structure.

System: HCT-116, HT-29, and KM12C colon cancer cell lines
Test: Cytokinome (cytokine, chemokine, growth factor) profiling of cell culture supernatant after small-molecule treatment, Luminex 200
Format: cell-based, human
Conditions: for decreases in VEGF: 48 h treatment at IC-10 to IC-90, slope of linear regression, count of drug/cell line groups (HCT-116, HT-29, KM12C) with analyte among top five most down-regulated
Method: We designed a high-throughput custom multiplex cytokine, chemokine, and growth factor profiling panel based on both pro- and anti-inflammatory markers, as well as cytokines and chemokines involved in the recruitment and activation of immune cells such as natural killer (NK) and T cells. Cell lines were treated with the drug panel and cell culture supernatants were analyzed using Luminex 200 technology (FIG. 2). Cell lines were treated at differing concentrations (IC-10, IC-30, IC-50, IC-70, and IC-90) to determine dose-response effects for each small-molecule. It is important to emphasize that the panel was designed to analyze soluble factors that are secreted or shed by tumor cells post-treatment with drug.
Cells were plated at 3.5×10^4 cells in a 48 well plate (Thermo Fisher Scientific, Waltham, MA, USA) in complete medium and incubated at 37° C. with 5% CO2. At 24 hours after plating, almost all the tumor cells were adherent to the bottom of the flask and the complete medium was replaced with drug-containing medium. Subsequently, the culture supernatants were collected after 48 hours of incubation and were frozen at −80° C. until the measurement of cytokines was performed. The day of analysis, samples were thawed and centrifuged to remove cellular debris.
An R&D systems Human Premixed Multi-Analyte Kit (R&D Systems, Inc., Minneapolis, MN) was run on a Luminex 200 Instrument (LX200-XPON-RUO, Luminex Corporation, Austin, TX) according to the manufacturer's instructions. Cell culture supernatant levels of TNF-alpha, IL-6, IL-8/CXCL8, Ferritin, IFN-beta, IL-10, CCL2/JE/MCP-1, VEGF, CXCL13/BLC/BCA-1, IFN-gamma, CCL20/MIP-3 alpha, CCL3/MIP-1 alpha, CCL22/MDC, CCL4/MIP-1 beta, IL-4, IL-17/IL-17a, TRAIL R2/TNFRSF10B, GM-CSF, CXCL5/ENA-78, CXCL9/MIG, G-CSF, CXCL11/I-TAC, Granzyme B, CCL5/RANTES, Prolactin, IFN-alpha, CXCL14/BRAK, IL-12/IL-23 p40, CXCL10/IP-10/CRG2, CCL7/MCP-3/MARC, IL-7, CCL8/MCP-2, TRANCE/TNFSF11/RANK L, IL-15, TRAIL R3/TNFRSF10C, CCL11/Eotaxin, IL-18/IL-1F4, TRAIL/TNFSF10, IL-21, and C-Reactive Protein/CRP were measured.
A quantitative analysis with 6 standards and a minimum of 50 counts per bead region was used with the Luminex to generate analyte values reported as picograms/milliliter (pg/mL). Cytokine concentrations less than the lower limit of detection for each particular cytokine were recoded as zero. Cytokines without detectable expression levels were removed from further analysis of each cell line. Each drug was tested at different inhibitory concentrations (IC-10, IC-30, IC-50, IC-70, and IC-90), and these varying concentrations were used to measure a dose-response effect on cytokine expression. Cytokine dose-response effect was modeled by simple linear regression for each drug. The slopes of the linear regressions were compared. Data analysis and visualization were generated using R (R Development Core Team, 2020).

[1] = 48 h, IC-10 to IC-90, regression slope, count of drug/cell line groups, top five most down-regulated
[2] = 48 h, IC-10 to IC-90, regression slope, count of drug/cell line groups, top five most up-regulated

Compound: Cc1nc(Nc2ncc(C(=O)Nc3c(C)cccc3Cl)s2)cc(N2CCN(CCO)CC2)n1 [Dasatinib]
- decreases in CXCL5/ENA-78 [1]: 2 out of 3
- decreases in CXCL9/MIG [1]: decreases
- decreases in IL-8/CXCL8 [1]: 3 out of 3
- increases in CXCL14/BRAK [2]: 3 out of 3
- increases in Prolactin [2]: 2 out of 3
- decreases in VEGF: 2 out of 3

Compound: C[C@H](Nc1ncnc2nc[nH]c12)c1cc2cccc(Cl)c2c(=O)n1-c1ccccc1 [Duvelisib]
- decreases in CCL3/MIP-1 alpha [1]: 2 out of 3
- decreases in CXCL9/MIG [1]: 2 out of 3
- decreases in CXCL14/BRAK [1]: 2 out of 3
- decreases in IL-8/CXCL8 [1]: 2 out of 3
- increases in Prolactin [2]: 2 out of 3
- decreases in VEGF: 3 out of 3
